Reference: patent US11730714B2, “Compounds for the treatment of neuromuscular disorders” (NMD PHARMA A/S, priority 2017, dated 2023)
The name of at least one read-out is uncertain.

System: rat soleus muscles
Test: Mg2+ concentration required to depress nerve-stimulated force by 50% (Kd,Mg2+), combination with 3,4-AP
Assay type: cell-based
Conditions: rat soleus muscle
Experimental: FIGS. 6A-6E. […] Muscles from 4-week-old rats were stimulated to contract by activating the motor nerve with short duration pulses in field stimulation. Muscles contracted every 10 min for 2 s in response to 30 Hz stimulation. Four different experimental conditions were used. […] C) similar to A) but this muscle had been pre-incubated with 3,4-AP. […] The force integral (AUC) was determined at each extracellular Mg^2+ concentration. AUC was plotted against Mg^2+ concentration and the data was fitted to a sigmoidal function. This provided the extracellular Mg^2+ concentration that was required to reduce the nerve-stimulated force to 50% (Mg50) under the four different conditions (see Table 5).
While the use of tubocurarine mimics conditions with reduced neuromuscular transmission due to post-synaptic dysfunction (myasthenia gravis, neuromuscular blockade), the experiments with elevated extracellular Mg^2+ mimics conditions with pre-synaptic dysfunction akin to a range of neuromuscular disorders including Lambert Eaton syndrome, motor neuron disorders and polyneuropathy. […] Based on this it was determined whether recovery of nerve-stimulated force at elevated extracellular Mg^2+ with CIC-1 inhibiting compounds could be added to force recovery with 3,4-AP. […] To quantify the effect of compounds on Mg^2+ sensitivity the force at the different Mg^2+ concentrations was determined. […]

With `C[C@H](Oc1ccc(Br)cc1)C(=O)O` [Compound C8, (2S)-2-(4-bromophenoxy)propanoic acid] the “Kd,Mg2+ (Mg2+ concentration required to depress nerve-stimulated force by 50%)” value (Compound (50 μM) + 3,4-AP (10 μM) in combination) was 7.8 ± 0.5 mM and the “Kd,Mg2+ (Mg2+ concentration required to depress nerve-stimulated force by 50%)” value (Compound (50 μM) alone) was 4.0 ± 0.1 mM*,**.
